{"source": "PubChem BioAssay AID504793 | Drosophila RNAi Screening Center, 2011", "test": "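Whole-genome screen for parts of the DNA damage checkpoint at G2/M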 (primary screen)", "cells": "Drosophila S2R+ cells", "knock-down reagent": "long dsRNA against Drosophila genes, about 0.25 µg dsRNA per well", "duration": "4 days of dsRNA, then 4 hours of drug before read-out", "conditions": "doxorubicin 0.5 µM for 4 hours to cause double-strand breaks, in cells also given a low, harmless dose of dsRNA against nbs to sensitise the assay", "measured": "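Mitotic index as the number of phospho-histone H3-positive cells in each well following doxorubicin, given as raw counts without normalisation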", "reading the numbers": "mitotic cells: higher = more cells in mitosis, weaker G2 arrest", "rule for the call": "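a call needs confirmation in secondary tests, with other dsRNAs and a check of mitotic timing without damage, not just a high primary count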", "meaning of the calls": "active = confirmed in follow-up tests; inactive = not confirmed", "note": "The deposit covers about 23,000 reagents; below is an unselected part of those that have a named target and a result. In the full data, 62 (0.27%) are marked active. 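Calls come from follow-up tests whose scores are not deposited, so confirmed genes may have low counts here; counts are not normalised per plate.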 Raw values vary from plate to plate and are shown uncorrected. Unmarked entries are inactive."}
{"target":"CG6793 (GeneID 39369)","dsRNA":"DRSC10714","mitotic cells, replicate 1":5}
{"target":"CG6793 (GeneID 39369)","dsRNA":"DRSC29291","mitotic cells, replicate 1":1}
{"target":"ATP6AP2 (GeneID 41104)","dsRNA":"DRSC16420","mitotic cells, replicate 1":7}
{"target":"swi2 (GeneID 37010)","dsRNA":"DRSC06457","mitotic cells, replicate 1":7}
{"target":"CG34056 (GeneID 38106)","dsRNA":"DRSC08374","mitotic cells, replicate 1":7}
{"target":"sel (GeneID 36046)","dsRNA":"DRSC06232","mitotic cells, replicate 1":4,"mitotic cells, replicate 2":11}
{"target":"HERC2 (GeneID 33035)","dsRNA":"DRSC20566","mitotic cells, replicate 1":4}
{"target":"CG9121 (GeneID 33732)","dsRNA":"DRSC03142","mitotic cells, replicate 1":7}
{"target":"CG8152 (GeneID 36696)","dsRNA":"DRSC07083","mitotic cells, replicate 1":9}
{"target":"spab (GeneID 35901)","dsRNA":"DRSC07112","mitotic cells, replicate 1":9}
{"target":"Hip1 (GeneID 39450)","dsRNA":"DRSC09812","mitotic cells, replicate 1":4}
{"target":"rec (GeneID 49241)","dsRNA":"DRSC14998","mitotic cells, replicate 1":7}
{"target":"rec (GeneID 49241)","dsRNA":"DRSC15656","mitotic cells, replicate 1":7}
{"target":"Gcn2 (GeneID 43709)","dsRNA":"DRSC16678","mitotic cells, replicate 1":7}
{"target":"RpS14b (GeneID 47219)","dsRNA":"DRSC18711","mitotic cells, replicate 1":10}
{"target":"CG4069 (GeneID 39437)","dsRNA":"DRSC10396","mitotic cells, replicate 1":8}
{"target":"CG14362 (GeneID 41695)","dsRNA":"DRSC14824","mitotic cells, replicate 1":5}
{"target":"Neos (GeneID 38795)","dsRNA":"DRSC11235","mitotic cells, replicate 1":10}
{"target":"ZnT35C (GeneID 34890)","dsRNA":"DRSC01959","mitotic cells, replicate 1":4}
{"target":"fd96Ca (GeneID 43010)","dsRNA":"DRSC16946","mitotic cells, replicate 1":12}
{"target":"fd96Ca (GeneID 43010)","dsRNA":"DRSC23974","mitotic cells, replicate 1":4}
{"target":"Cog3 (GeneID 33562)","dsRNA":"DRSC00585","mitotic cells, replicate 1":5}
{"target":"teq (GeneID 39048)","dsRNA":"DRSC10298","mitotic cells, replicate 1":8}
{"target":"teq (GeneID 39048)","dsRNA":"DRSC11301","mitotic cells, replicate 1":5}
{"target":"teq (GeneID 39048)","dsRNA":"DRSC11302","mitotic cells, replicate 1":5}
{"target":"tsg (GeneID 32160)","dsRNA":"DRSC20380","mitotic cells, replicate 1":6}
{"target":"tsg (GeneID 32160)","dsRNA":"DRSC25436","mitotic cells, replicate 1":16}
{"target":"TkR99D (GeneID 43551)","dsRNA":"DRSC16881","mitotic cells, replicate 1":8}
{"target":"CG12341 (GeneID 36137)","dsRNA":"DRSC06133","mitotic cells, replicate 1":11}
{"target":"CG31036 (GeneID 43539)","dsRNA":"DRSC15055","mitotic cells, replicate 1":4}
{"target":"CG31036 (GeneID 43539)","dsRNA":"DRSC15057","mitotic cells, replicate 1":4}
{"target":"CG32055 (GeneID 39188)","dsRNA":"DRSC10666","mitotic cells, replicate 1":5}
{"target":"CG1309 (GeneID 38519)","dsRNA":"DRSC08302","mitotic cells, replicate 1":6}
{"target":"lva (GeneID 31350)","dsRNA":"DRSC18403","mitotic cells, replicate 1":6}
{"target":"lva (GeneID 31350)","dsRNA":"DRSC27594","mitotic cells, replicate 1":11}

4 of these entries, reformatted.
Gcn2 (GeneID 43709) [DRSC16678] → mitotic cells, replicate 1 = 7
RpS14b (GeneID 47219) [DRSC18711] → mitotic cells, replicate 1 = 10
CG4069 (GeneID 39437) [DRSC10396] → mitotic cells, replicate 1 = 8
CG14362 (GeneID 41695) [DRSC14824] → mitotic cells, replicate 1 = 5
